Results published in patent US9668497B2, “Flavor-enhancing compounds” (INTERNATIONAL FLAVORS & FRAGRANCES INC., priority 2015, dated 2017).

Assays:
Type in all cases: in vivo
[1] = Cooling enhancement in WS-5 (30 ppm)
Method: (§1) The cooling enhancement of Formula I and Na-Formula I in cooling compounds including WS-5 (30 ppm), WS-23 (35 ppm), menthyl lactate (35 ppm), WS-3 (30 ppm) and Cooler 2 (10 ppm) was also evaluated.

[2] = Cooling enhancement in Cooler 2 (10 ppm)
Method: as §1

[3] = Cooling enhancement in menthyl lactate (35 ppm)
Method: as §1

[4] = Cooling enhancement in WS-3 (30 ppm)
Method: as §1

[5] = Cooling enhancement in WS-23 (35 ppm)
Method: as §1

[6] = Cooling enhancement in menthol (35 ppm), trained sensory panel
Method: The flavor compositions of menthol (35 ppm) combined with 7,8-dihydroxy-2-phenyl-4H-chromen-4-one (Formula I) at different concentrations were evaluated by a trained sensory panel. Sensory results are reported in the following. […]

In the case of `O=c1cc(-c2ccccc2)oc2c(O)c(O)ccc12` [Formula I, 7,8-dihydroxy-2-phenyl-4H-chromen-4-one], the “Evaluation on the Cooling Enhancement: accompanying note” value (“Evaluation on the Cooling Enhancement” below) ([1]; test substance 30 ppm) is reported as “slight burning note”, the “Evaluation on the Cooling Enhancement” value ([1]; test substance 40 ppm) is reported as “harsh burning note” and the “Evaluation on the Cooling Enhancement” value ([1]; test substance 50 ppm) is reported as “harsh burning note”. For the same compound, the “Evaluation on the Cooling Enhancement” value ([1]; test substance 100 ppm) was “harsh burning note”, the “Evaluation on the Cooling Enhancement” value ([2]; test substance 30 ppm) was “slight burning note” and the “Evaluation on the Cooling Enhancement” value ([2]; test substance 40 ppm) was “harsh burning note”. The “Evaluation on the Cooling Enhancement” value ([2]; test substance 50 ppm) was “harsh burning note”, the “Evaluation on the Cooling Enhancement” value ([2]; test substance 100 ppm) was “harsh burning note” and the “Evaluation on the Cooling Enhancement” value ([3]; test substance 30 ppm) was “slight burning note”. The “Evaluation on the Cooling Enhancement” value ([3]; test substance 40 ppm) was “harsh burning note”, the “Evaluation on the Cooling Enhancement” value ([3]; test substance 50 ppm) was “harsh burning note” and the “Evaluation on the Cooling Enhancement” value ([3]; test substance 100 ppm) was “harsh burning note”. The “Evaluation on the Cooling Enhancement” value ([4]; test substance 30 ppm) was “slight burning note”, the “Evaluation on the Cooling Enhancement” value ([4]; test substance 40 ppm) was “harsh burning note” and the “Evaluation on the Cooling Enhancement” value ([4]; test substance 50 ppm) was “harsh burning note”. The “Evaluation on the Cooling Enhancement” value ([4]; test substance 100 ppm) was “harsh burning note”, the “Evaluation on the Cooling Enhancement” value ([5]; test substance 30 ppm) was “slight burning note” and the “Evaluation on the Cooling Enhancement” value ([5]; test substance 40 ppm) was “harsh burning note”. For the same compound, the “Evaluation on the Cooling Enhancement” value ([5]; test substance 50 ppm) was “harsh burning note”, the “Evaluation on the Cooling Enhancement” value ([5]; test substance 100 ppm) was “harsh burning note” and the “Flavor Profile: accompanying note” value ([6]; test substance 20 ppm) was “reduced bitterness”. The “Flavor Profile: accompanying note” value ([6]; test substance 30 ppm (slight burning note)) was “burning note”, the “Flavor Profile: accompanying note” value ([6]; test substance 40 ppm (reduced bitterness and burning note)) was “bitterness and burning note” and the “Flavor Profile: accompanying note” value ([6]; test substance 50 ppm (harsh burning note)) was “burning note”. For the same compound, the “Flavor Profile: accompanying note” value ([6]; test substance 100 ppm (harsh burning note)) was “burning note”.
